Record: PubChem BioAssay AID686938 (Drosophila RNAi Screening Center, 2013)
Screen: 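Fly genes required for calcium entry once internal stores are emptied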 (primary screen). Cells: Drosophila S2R+ cells. Reagents: long dsRNA against Drosophila genes, about 0.25 µg dsRNA per well, roughly 10,000 cells. Time to read-out: 5 days of knock-down before the calcium assay. Conditions: thapsigargin (SERCA pump blocker) to empty calcium stores; entry signal taken 4 min after adding it. Measurement: 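Per-well fluo-4 fluorescence in two replicates, unnormalised, measured in resting cells and 4 min after store depletion by the SERCA blocker thapsigargin; ratio of the two present in few wells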. Reading the numbers: calcium entry signal: higher = stronger calcium signal after store depletion; resting calcium signal: higher = higher resting calcium signal. Rule for the call: 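Called when the plate z-score of the entry-to-rest ratio, mean of duplicates, falls below −3; wells with low overall dye signal (Fmax z below −2) or more than five off-targets excluded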. Meaning of the calls: active = strongly reduced calcium entry; inactive = no strong reduction.
The deposit covers about 23,000 reagents; this is a random part of those with a known target gene and a result. In the full data, 75 (0.33%) are marked active. 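Raw plate signals without normalisation; calls rest on plate z-scores that were not deposited; ratio present for only 364 wells.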 A number with no mark means an inactive call. Reagents against one gene are numbered here. Names joined by + are all predicted targets of the reagent. Not given: the dose of the treatment.

predicted target	reagent no.	calcium entry signal, replicate 1 (fluorescence units)	calcium entry signal, replicate 2 (fluorescence units)	resting calcium signal, replicate 1 (fluorescence units)	resting calcium signal, replicate 2 (fluorescence units)
CG31988	1	3.84e7	2.93e7	2.40e7	1.54e7
Pcl (Polycomblike)	1	3.44e7	3.49e7	1.61e7	1.69e7
Cse1 (Chromosome segregation 1)	1	1.92e7	3.30e7	1.49e7	1.66e7
CG34302	1	3.37e7	3.86e7	1.69e7	1.79e7
pinta	1	3.40e7	3.33e7	1.61e7	1.50e7
CG7741	1	3.11e7	2.47e7	1.61e7	1.06e7
CR11235 (pseudo)	1	4.57e7	4.21e7	2.17e7	1.91e7
e(y)2b (enhancer of yellow 2b)	1	5.10e7	3.13e7	2.35e7	1.53e7
Pgant4 (Polypeptide N-Acetylgalactosaminyltransferase 4)	1	2.80e7	3.17e7	1.49e7	1.42e7
Megf8 (Multiple EGF like domains 8)	1	4.23e7		2.54e7	
Targ1 (Terminal ADP-ribose protein glycohydrolase 1)	1	3.20e7	4.98e7	1.63e7	2.25e7
AgmNAT (Agmatine N-acetyltransferase)	1	2.57e7	3.55e7	1.40e7	1.67e7
CG32147	1	4.89e7	3.96e7	2.37e7	1.95e7
CG13069	1	3.54e7	4.34e7	1.84e7	1.62e7
CG30039	1	4.00e7	3.54e7	2.15e7	1.71e7
JMJD4 (Jumonji domain containing 4)	1	4.01e7		1.97e7	
CG11617	1	3.48e7	3.91e7	1.90e7	1.63e7
CG11617	2	3.88e7	3.23e7	2.00e7	1.53e7
Cpr72Eb (Cuticular protein 72Eb)	1	4.05e7	4.54e7	1.77e7	1.78e7
Nle (Notchless)	1	2.37e7	2.00e7	1.26e7	9.99e6
CG33255 (retired record) + hpRNA:CR32205 + CR42838	1	3.25e7	4.05e7	1.75e7	1.88e7
Nepl7 (Neprilysin-like 7)	1	4.49e7	2.25e7	2.06e7	1.11e7
vrs (versager)	1	3.96e7	3.10e7	1.96e7	1.63e7
CG9550	1	2.23e7	1.82e7	1.21e7	9.12e6

Ordered by “calcium entry signal, replicate 2 (fluorescence units)” (ascending): some entries from above
predicted target	reagent no.	calcium entry signal, replicate 1 (fluorescence units)	calcium entry signal, replicate 2 (fluorescence units)	resting calcium signal, replicate 1 (fluorescence units)	resting calcium signal, replicate 2 (fluorescence units)
Cse1 (Chromosome segregation 1)	1	1.92e7	3.30e7	1.49e7	1.66e7
pinta	1	3.40e7	3.33e7	1.61e7	1.50e7
CG34302	1	3.37e7	3.86e7	1.69e7	1.79e7
